Reference: PMC6345845

Molecular target: T1, pseudo-wt PI4KB Y159A labeled with Atto488 (human) (UniProt Q9UBF8)
T1 sequence (chain, Atto488 (maleimide labelling)): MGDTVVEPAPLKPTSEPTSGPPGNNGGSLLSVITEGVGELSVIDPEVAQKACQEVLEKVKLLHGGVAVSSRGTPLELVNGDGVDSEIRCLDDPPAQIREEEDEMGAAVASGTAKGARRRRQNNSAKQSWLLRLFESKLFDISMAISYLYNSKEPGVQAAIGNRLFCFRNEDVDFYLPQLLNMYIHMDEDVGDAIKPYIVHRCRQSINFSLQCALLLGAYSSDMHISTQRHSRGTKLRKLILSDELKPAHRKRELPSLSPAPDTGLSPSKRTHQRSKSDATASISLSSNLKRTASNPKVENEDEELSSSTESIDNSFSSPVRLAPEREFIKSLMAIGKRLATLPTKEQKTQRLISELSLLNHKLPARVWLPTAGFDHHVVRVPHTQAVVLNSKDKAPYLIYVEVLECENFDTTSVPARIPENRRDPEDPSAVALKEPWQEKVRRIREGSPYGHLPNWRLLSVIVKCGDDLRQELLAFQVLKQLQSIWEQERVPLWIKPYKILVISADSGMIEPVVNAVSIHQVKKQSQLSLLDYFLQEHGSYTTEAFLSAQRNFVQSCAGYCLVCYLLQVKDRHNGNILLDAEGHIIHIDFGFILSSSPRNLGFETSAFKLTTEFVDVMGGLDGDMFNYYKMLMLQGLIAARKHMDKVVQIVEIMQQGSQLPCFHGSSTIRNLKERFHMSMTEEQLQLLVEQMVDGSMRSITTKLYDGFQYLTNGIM
Assay: fluorescence cross-correlation spectroscopy (FCCS); on GUV membrane; Atto488-PI4KB attached by tethered ACBD3; mCherry-Rab11-His tethered to the membrane via His tag; proteins approximately 50 nM; both purified

- binding: no binding (tested: approximately 50 nM)
Substance: mCherry-Rab11-His (membrane tethered)

Results are given in words; binding and its absence hold for the method and conditions named.
